Test results taken from US20240122956A1, “Application of Naringin Combined with Rapamycin in Preparation of Medications for Treating Hyperlipidemia” (AIR FORCE MEDICAL UNIVERSITY, priority 2023, published 2024).
At least one structure is not confirmed: it was looked up by name or label, or the drawing left a doubt.

How the values were obtained:
[1] = test system: hyperlipidemia model Ldr1−/− (C57BL/6J) mice; experiment: serum IL-1β in hyperlipidemic mice; assay type: in vivo
[2] = test system: hyperlipidemia model Ldr1−/− (C57BL/6J) mice; experiment: lipid accumulation / lesions in carotid arteries, aortic roots and liver of hyperlipidemic mice (Oil Red O); assay type: in vivo; details: summary statement, tissue not named
Source text: To evaluate the synergistic therapeutic effects of naringin and rapamycin on hyperlipidemia mice (FIG. 4), a hyperlipidemia model was established using Ldr1^−/− (C57BL/6J) mice. […] Subsequently, mouse serum, tissues of carotid arteries, liver, and aortic root were collected for analysis. Assessment of Lesions in Carotid Arteries, Aortic Roots, and Liver Tissues: Carotid arteries, hearts, and livers of mice were dissected, fixed overnight with 4% PFA, and carotid arteries were stained with Oil Red O after gently removing adherent (outer membrane) fat and flattening them from the carotid arteries. The stained aortas were placed on anti-fall-off slides, fully unfolded, and images were captured using a high-resolution camera. Hearts and livers were embedded in OCT tissue, and 7-10 μm thick continuous sections were collected. Staining was performed with Oil Red O and hematoxylin and eosin. Stained sections were analyzed using an optical microscope. ImageJ (version 2.10) was used for quantitative analysis of the images. Lesion areas were assessed according to the percentage of Oil Red 0-positive areas in the total sampled area.

In the case of `CO[C@H]1C[C@@H]2CC[C@@H](C)[C@@](O)(O2)C(=O)C(=O)N2CCCC[C@H]2C(=O)O[C@H]([C@H](C)C[C@@H]2CC[C@@H](O)[C@H](OC)C2)CC(=O)[C@H](C)/C=C(\C)[C@@H](O)[C@@H](OC)C(=O)[C@H](C)C[C@H](C)/C=C/C=C/C=C/1C` [rapamycin], the “serum IL-1β” value ([1]; high-fat diet 16 weeks, naringin 20 mg/kg daily intraperitoneal, RAPA 40 mg/kg in diet) is reported as “no significant regulatory effect”, the “regulatory effect on inflammatory reaction” value ([1]; hyperlipidemic mice, summary statement) is reported as “not significant” and the “regulatory effect on lipid accumulation” value [2] is reported as “not significant”.
